This is one part of the list. For some assays here: Many values rest on one well or one pass, so single values are uncertain.

Holding throughout (conditions): RNA concentration 10 µM; fragment concentration 200 µM; 293 K
One experiment has as its system SARS-CoV-2 5'-UTR RNA. The experiment can be described thus: T2 signal reduction relative to ligand without RNA (fraction); higher = stronger binding.
Another experiment concerns SARS-CoV-2 3'-UTR RNA. The experiment can be described thus: NMR binding call after quantification (hit when 2 of 3 NMR criteria are met) (binary (1 = binding, 0 = not binding)); higher = binding.
Another experiment deals with SARS-CoV-2 3_SL1 RNA. Described as above.
For a further experiment, the system named is SARS-CoV-2 3_SL1+2 RNA. The description is as above.
In another experiment the test system is SARS-CoV-2 3_SL2 RNA. The description is as above.
Experiment [1] has as its system SARS-CoV-2 3_SL3base RNA. The experiment is described as above.
Experiment [2] deals with SARS-CoV-2 3_s2m RNA. The experiment is described as above.
In experiment [3] the test system is SARS-CoV-2 3_SL3base RNA. The experiment can be described thus: T2 signal reduction relative to ligand without RNA (fraction); higher = stronger binding.
Experiment [4] deals with SARS-CoV-2 3_s2m RNA. The experiment is described as above.
The subject of a further experiment is SARS-CoV-2 5_SL1 RNA. Described as above.
Another experiment has as its system SARS-CoV-2 5_SL5 RNA. The description is as above.
For the next experiment, the system named is SARS-CoV-2 5_SL7 RNA. Described as above.
Experiment [5] concerns SARS-CoV-2 frameshift pseudoknot (PK) RNA. Described as above.
Another experiment concerns SARS-CoV-2 5_SL5b+c RNA. The experiment is described as above.
A further experiment deals with SARS-CoV-2 5_SL6 RNA. The description is as above.
A further experiment deals with SARS-CoV-2 5_SL8 RNA. The experiment is described as above.

For `COc1ccc(NC(=O)CN)cc1`, in the experiment with SARS-CoV-2 5'-UTR RNA, the T2 signal reduction came to 0.83. Further, the NMR binding call with SARS-CoV-2 3'-UTR RNA, with SARS-CoV-2 3_SL1 RNA, in the experiment with SARS-CoV-2 3_SL1+2 RNA, in the experiment with SARS-CoV-2 3_SL2 RNA, with SARS-CoV-2 3_SL3base RNA [1] and in the experiment with SARS-CoV-2 3_s2m RNA [2] was 0 each time.
Turning to `CC(=O)c1ccc(NC(=O)CN2CCCC2)cc1`, the T2 signal reduction with SARS-CoV-2 3_SL3base RNA [3] came to 0.63; in the experiment with SARS-CoV-2 3_s2m RNA [4], 0.39; with SARS-CoV-2 5'-UTR RNA, 0.45; with SARS-CoV-2 5_SL1 RNA, 0.26; in the experiment with SARS-CoV-2 5_SL5 RNA, 0.44; in the experiment with SARS-CoV-2 5_SL7 RNA, 0.4. For the same compound, in [5], the T2 signal reduction turned out to be 0.39. The NMR binding call came to 1 in the experiment with SARS-CoV-2 3'-UTR RNA; 0 with SARS-CoV-2 3_SL1 RNA; 1 in the experiment on SARS-CoV-2 3_SL1+2 RNA; 1 with SARS-CoV-2 3_SL2 RNA; 1 with SARS-CoV-2 3_SL3base RNA [1]; 1 in the experiment with SARS-CoV-2 3_s2m RNA [2].
On to `CCNC1CCN(c2ccncc2)CC1`, for which the T2 signal reduction turned out to be 0.63 in the experiment with SARS-CoV-2 3_SL3base RNA [3]; 0.48 in the experiment on SARS-CoV-2 3_s2m RNA [4]; 0.35 in the experiment with SARS-CoV-2 5_SL1 RNA; 0.59 with SARS-CoV-2 5_SL5b+c RNA; 0.59 in the experiment with SARS-CoV-2 5_SL7 RNA; 0.54 in [5]. The NMR binding call in the experiment with SARS-CoV-2 3'-UTR RNA, with SARS-CoV-2 3_SL1 RNA, with SARS-CoV-2 3_SL1+2 RNA, with SARS-CoV-2 3_SL2 RNA, in the experiment with SARS-CoV-2 3_SL3base RNA [1] and with SARS-CoV-2 3_s2m RNA [2] was 1 in each case.
As for `Cc1nccc(N2CCC(N)CC2)n1`, the T2 signal reduction stood at 0.56 in the experiment on SARS-CoV-2 3_SL3base RNA [3]; 0.15 in the experiment on SARS-CoV-2 3_s2m RNA [4]; 0.44 with SARS-CoV-2 5'-UTR RNA; 0.61 in the experiment with SARS-CoV-2 5_SL5b+c RNA; 0.38 in experiment [5]. Moreover, the NMR binding call was found to be 1 with SARS-CoV-2 3'-UTR RNA; 0 in the experiment on SARS-CoV-2 3_SL1 RNA; 1 with SARS-CoV-2 3_SL1+2 RNA; 1 in the experiment on SARS-CoV-2 3_SL2 RNA; 1 in the experiment on SARS-CoV-2 3_SL3base RNA [1]; 1 with SARS-CoV-2 3_s2m RNA [2].
Regarding `c1ccc(NCC2CCNC2)nc1` (centres undefined), the T2 signal reduction in the experiment on SARS-CoV-2 5'-UTR RNA worked out at 0.68; in the experiment on SARS-CoV-2 5_SL5b+c RNA, 0.33; with SARS-CoV-2 5_SL7 RNA it was 0.27; in experiment [5] it was 0.8. The NMR binding call in the experiment on SARS-CoV-2 3'-UTR RNA, in the experiment on SARS-CoV-2 3_SL1 RNA and with SARS-CoV-2 3_SL1+2 RNA was 0 throughout.
Compound `CC(N)c1ccc(-c2cncnc2)cc1` (centres undefined) had a T2 signal reduction with SARS-CoV-2 5'-UTR RNA of 0.52. The NMR binding call with SARS-CoV-2 3'-UTR RNA amounted to 1; in the experiment on SARS-CoV-2 3_SL1 RNA, 0; with SARS-CoV-2 3_SL1+2 RNA, 0; in the experiment with SARS-CoV-2 3_SL2 RNA, 0; with SARS-CoV-2 3_SL3base RNA [1], 0.
As for `CC(=O)Nc1ccc(-c2csc(N)n2)cc1`, the results for the T2 signal reduction with SARS-CoV-2 5'-UTR RNA and with SARS-CoV-2 5_SL5 RNA were 0.69 and 0.78, respectively. Also, the NMR binding call turned out to be 1 with SARS-CoV-2 3'-UTR RNA; 0 in the experiment on SARS-CoV-2 3_SL1 RNA; 0 in the experiment on SARS-CoV-2 3_SL1+2 RNA; 0 in the experiment on SARS-CoV-2 3_SL2 RNA; 0 in the experiment on SARS-CoV-2 3_s2m RNA [2].
For `CNC(=O)c1ccccc1NC(=O)c1ccco1`, the T2 signal reduction in the experiment with SARS-CoV-2 3_SL3base RNA [3] was 0.72; in the experiment on SARS-CoV-2 5'-UTR RNA, 0.75; in the experiment with SARS-CoV-2 5_SL5 RNA it was 0.75; in the experiment on SARS-CoV-2 5_SL6 RNA, 0.35; in the experiment on SARS-CoV-2 5_SL8 RNA, 0.39. The NMR binding call in the experiment with SARS-CoV-2 3'-UTR RNA came to 1; in the experiment with SARS-CoV-2 3_SL1 RNA it was 0; with SARS-CoV-2 3_SL3base RNA [1] it was 1; with SARS-CoV-2 3_s2m RNA [2], 0.
In the experiment on SARS-CoV-2 3_SL3base RNA [3], `CNCc1ccc(C(F)(F)F)cc1` gave a T2 signal reduction of 0.38. Besides, the NMR binding call in the experiment with SARS-CoV-2 3'-UTR RNA was 0; in the experiment with SARS-CoV-2 3_SL1 RNA, 0; with SARS-CoV-2 3_SL1+2 RNA, 1; with SARS-CoV-2 3_SL2 RNA, 0; with SARS-CoV-2 3_SL3base RNA [1] it was 1; with SARS-CoV-2 3_s2m RNA [2], 0.
On to `Nc1nccc(-c2ccc(Cl)cc2)n1`, for which the T2 signal reduction with SARS-CoV-2 3_SL3base RNA [3] came out at 0.83; in the experiment on SARS-CoV-2 5'-UTR RNA it was 0.9; in the experiment with SARS-CoV-2 5_SL5 RNA it was 1.02; in the experiment on SARS-CoV-2 5_SL5b+c RNA, 0.23; in experiment [5], 0.8. Also, the NMR binding call with SARS-CoV-2 3'-UTR RNA came to 1; in the experiment on SARS-CoV-2 3_SL1 RNA, 0; in the experiment on SARS-CoV-2 3_SL1+2 RNA, 0; in the experiment with SARS-CoV-2 3_SL2 RNA, 1; in the experiment with SARS-CoV-2 3_SL3base RNA [1], 1; with SARS-CoV-2 3_s2m RNA [2], 0.
Regarding `COc1ccc(Nc2ncnc3[nH]cnc23)cc1`, the T2 signal reduction in the experiment with SARS-CoV-2 3_SL3base RNA [3] amounted to 0.54; with SARS-CoV-2 5'-UTR RNA it was 0.5; in the experiment on SARS-CoV-2 5_SL5 RNA, 0.43. Further, the NMR binding call came out at 1 in the experiment on SARS-CoV-2 3'-UTR RNA, 0 in the experiment on SARS-CoV-2 3_SL1 RNA, 0 in the experiment on SARS-CoV-2 3_SL2 RNA and 1 in the experiment on SARS-CoV-2 3_SL3base RNA [1].
`O=C(OCc1ccc(Cl)cc1)c1cccnc1` registered a T2 signal reduction with SARS-CoV-2 5'-UTR RNA of 0.22. For the same compound, the NMR binding call in the experiment on SARS-CoV-2 3'-UTR RNA stood at 1; in the experiment on SARS-CoV-2 3_SL1 RNA, 0; in the experiment on SARS-CoV-2 3_SL1+2 RNA, 0; with SARS-CoV-2 3_SL2 RNA, 0; in the experiment on SARS-CoV-2 3_SL3base RNA [1], 0; in the experiment with SARS-CoV-2 3_s2m RNA [2] it was 0.
